Assay results: PMC8494293, “Relief of ParB autoinhibition by parS DNA catalysis and recycling of ParB by CTP hydrolysis promote bacterial centromere assembly” (Science Advances, 2021)
The exact form of at least one protein or probe is not confirmed. At least one verdict rests on a figure or table, not on a statement of the authors.

Amino acid sequences for entries named in this document (tags omitted). A change or cut given only in a name is not applied to a line headed by its entry.
UniProt P26497: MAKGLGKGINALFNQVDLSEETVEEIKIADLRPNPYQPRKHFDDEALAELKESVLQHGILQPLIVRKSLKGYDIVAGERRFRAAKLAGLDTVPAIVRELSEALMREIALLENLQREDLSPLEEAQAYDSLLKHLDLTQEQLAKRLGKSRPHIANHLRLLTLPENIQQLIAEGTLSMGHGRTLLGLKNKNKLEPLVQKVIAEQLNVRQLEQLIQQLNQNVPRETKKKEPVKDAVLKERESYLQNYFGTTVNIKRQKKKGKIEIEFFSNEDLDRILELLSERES

Each sequence was assayed against ParB (Bacillus subtilis) (UniProt P26497) (assay: fluorescence anisotropy). Settings: no notable change in affinity vs parS; recombinant protein.

Binding result, binds:
AGTTGTTCTGTTTCACGATACGTGGAACATCTGGATTACC (double strand) [parS_5bp (+GATAC)]
TAGTTGTTCTGTTTCACGACGTGGAACATCTGGATTACCC (double strand) [parS_3bp (+GAC)]
AGTTGTTCTGTTTCACGAACGTGGAACATCTGGATTACCC (double strand) [parS_4bp (+GAAC)]
GTTGTTCTGTTTCACGATTACGTGGAACATCTGGATTACC (double strand) [parS_6bp (+GATTAC)]
TTGTTCTGTTTCACGATCATACGTGGAACATCTGGATTAC (double strand) [parS_8bp (+GATCATAC)]
TAGTTGTTCTGTTTCACGGTGGAACATCTGGATTACCCGC (double strand) [parS_1bp (+G)]
TAGTTGTTCTGTTTCACGCGTGGAACATCTGGATTACCCG (double strand) [parS_2bp (+GC)]
GTTGTTCTGTTTCACGATCTACGTGGAACATCTGGATTAC (double strand) [parS_7bp (+GATCTAC)]

Same assay, conditions: reference for spacer variants; recombinant protein

Binding result, binds:
TTAGTTGTTCTGTTTCACGTGGAACATCTGGATTACCCGC (double strand) [parS DNA40 (parS-359)]
